Measurements from PMC5109294, “NANOG reprograms prostate cancer cells to castration resistance via dynamically repressing and engaging the AR/FOXA1 signaling axis”.
These are yes or no findings as the source states them, for the method shown. In cells and extracts the contact can be indirect. Some results given as binding are weak or reduced against the parent protein; the word gives no strength.

Sequences of proteins named here, by UniProt entry; tags and fusion partners are left off.
UniProt Q9H9S0: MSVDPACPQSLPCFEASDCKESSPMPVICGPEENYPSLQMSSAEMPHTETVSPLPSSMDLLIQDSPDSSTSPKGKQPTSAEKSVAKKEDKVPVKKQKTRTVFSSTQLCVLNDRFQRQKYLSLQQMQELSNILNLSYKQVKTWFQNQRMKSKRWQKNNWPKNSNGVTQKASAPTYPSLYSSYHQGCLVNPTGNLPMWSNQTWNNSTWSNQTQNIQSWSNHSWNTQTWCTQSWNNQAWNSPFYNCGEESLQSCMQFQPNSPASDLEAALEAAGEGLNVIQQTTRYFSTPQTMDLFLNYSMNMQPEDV

Target: T1, Forkhead box A1 (human (endogenous in LNCaP)) (UniProt P55317)
T1 sequence: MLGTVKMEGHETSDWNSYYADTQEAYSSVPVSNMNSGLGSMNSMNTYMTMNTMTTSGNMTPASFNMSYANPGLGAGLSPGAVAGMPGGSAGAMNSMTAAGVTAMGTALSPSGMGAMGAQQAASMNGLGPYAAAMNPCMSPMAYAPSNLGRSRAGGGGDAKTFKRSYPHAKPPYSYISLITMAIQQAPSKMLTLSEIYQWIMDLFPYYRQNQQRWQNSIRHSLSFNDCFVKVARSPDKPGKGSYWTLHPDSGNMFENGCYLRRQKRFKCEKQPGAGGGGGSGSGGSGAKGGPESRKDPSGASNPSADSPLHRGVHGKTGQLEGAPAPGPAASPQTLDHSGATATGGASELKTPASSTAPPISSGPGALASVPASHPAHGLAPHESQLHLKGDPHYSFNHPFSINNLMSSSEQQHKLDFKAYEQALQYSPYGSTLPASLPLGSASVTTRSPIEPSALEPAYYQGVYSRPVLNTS
Assay: co-IP; whole-cell lysate of LNCaP-pLVX, LNCaP-NANOG1 or LNCaP-NP8 cells; IP with anti-FOXA1 goat pAb, western blot for FOXA1, AR and NANOG

binding: binds
Substance: NANOG1 (from UniProt Q9H9S0 1-305)
